Experimental data published in publication PMC8629753.
No constants are given. Whether binding was seen depends on the method and setting. Binding seen in cells or lysates may run through a third protein. Some binding calls cover weakened binding; strength is not graded here. Where a sequence is shown, tags or fusion partners need not be part of it.

Molecular target: T1, ANKRD31 p.Gln329* truncated protein, 3X FLAG tagged (human) (UniProt Q8N7Z5)
T1 sequence: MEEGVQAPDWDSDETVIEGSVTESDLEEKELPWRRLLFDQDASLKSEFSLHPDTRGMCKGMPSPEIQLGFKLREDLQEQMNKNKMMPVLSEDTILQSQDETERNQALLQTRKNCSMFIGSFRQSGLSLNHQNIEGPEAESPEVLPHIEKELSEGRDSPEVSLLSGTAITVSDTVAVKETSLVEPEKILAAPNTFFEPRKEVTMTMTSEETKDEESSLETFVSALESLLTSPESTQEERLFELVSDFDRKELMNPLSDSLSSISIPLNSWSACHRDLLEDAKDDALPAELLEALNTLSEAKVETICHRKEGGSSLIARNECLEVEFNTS
Assay: co-IP; ANKRD31 (3X FLAG) and REC114 (HA) plasmids cotransfected into HEK293 cells for 48 hours; NP-40 lysis buffer; 0.5 mg protein with anti-FLAG M2 magnetic beads at room temperature for 3 hours; western blot

B1: REC114 with HA tag at C-terminus (protein, UniProt Q7Z4M0 1-266)
chain: MAEAGKVPLSLGLTGGEAAEWPLQRYARCIPSNTRDPPGPCLEAGTAPCPTWKVFDSNEESGYLVLTIVISGHFFIFQGQTLLEGFSLIGSKDWLKIVRRVDCLLFGTTIKDKSRLFRVQFSGESKEQALEHCCSCVQKLAQYITVQVPDGNIQELQLIPGPPRATESQGKDSAKSVPRQPGSHQHSEQQQVCVTAGTGAPDGRTSLTQLAQTLLASEELPHVYEQSAWGAEELGPFLRLCLMDQNFPAFVEEVEKELKKLAGLRN
binding: binds
